PubChem BioAssay AID1259254 | NCATS | 2017
Here is one part, drawn at random, of about 59,000 reagents tested. Of all reagents, about 1,550 (2.6%) are marked active. 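G2 share is only a proxy for re-replication; each gene was hit by three separate siRNAs, and active genes were retested.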 Entries without a mark were called inactive. Reagents against one gene are numbered here. Not all columns of the deposit are shown. Not given: the amount of reagent.

Test: 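Finding genes that stop cells copying their DNA twice in one cycle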 (primary screen)
System: human HCT116 colorectal cancer cells
Reagents: single siRNA against human genes
Duration: 3 days
Measured: 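Nuclei stained with Hoechst and imaged; cell-cycle phase assigned by DNA content; G2 share scaled per plate, non-targeting siRNA 0%, GMNN siRNA 100%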
Scale: G2 robust z-score: higher = more G2 cells, more excess DNA replication
Call rule: 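Active siRNAs have a G2 robust z of 5 or more median absolute deviations over the median, which in these data means about 38% or higher of GMNN control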

gene,reagent no.,G2 robust z-score
GTSF1L,1,-0.531
GTSF1L,2,-0.694
GTSF1L,3,-0.369
ABCA5,1,-1.18
ABCA5,2,-0.673
ABCA5,3,-1.26
SYT8,1,-0.432
SYT8,2,0.174
SYT8,3,3.24
CEACAM7,1,-0.395
CEACAM7,2,0.0266
CEACAM7,3,-0.381
ITGB3,1,-0.589
ITGB3,2,4.57
ITGB3,3,-0.467
LOC644841 (retired record),1,-0.0447
LOC644841 (retired record),2,-0.888
LOC644841 (retired record),3,-0.442
LOC644841 (retired record),4,0.947
LOC644841 (retired record),5,0.594
LOC644841 (retired record),6,0.115
TUBGCP4,1,-0.16
TUBGCP4,2,2.57
TUBGCP4,3,-0.672
FHIP2A,1,-0.585
FHIP2A,2,-0.295
FHIP2A,3,-0.589
KLHDC10,1,1.78
KLHDC10,2,0.314
KLHDC10,3,0.689
KCNJ3,1,-0.538
KCNJ3,2,-1.01
KCNJ3,3,-0.208
OLAH,1,-0.0267
OLAH,2,-1.36
OLAH,3,-0.994
ELOVL5,1,1.93
ELOVL5,2,0.363
ELOVL5,3,0.123
SERP1,1,-0.441
SERP1,2,4.33
SERP1,3,-0.305
CLASP1,1,-0.543
CLASP1,2,2.93
CLASP1,3,6.3 (active)
VPS37A,1,-0.624
VPS37A,2,1.16
VPS37A,3,-0.57
ANKRD33,1,-0.633
ANKRD33,2,2.7
ANKRD33,3,-0.112
LY6G6D,1,-0.312
LY6G6D,2,0.21
LY6G6D,3,2.21
ERCC6L2,1,0.373
ERCC6L2,2,2.79
ERCC6L2,3,1.39
ERCC6L2,4,-0.717
ERCC6L2,5,-0.263
ERCC6L2,6,-0.0117
FOXC1,1,-0.885
FOXC1,2,0.0949
FOXC1,3,-0.593
EIF2B1,1,-0.158
EIF2B1,2,-0.439
EIF2B1,3,6.27 (active)
TAAR2,1,-0.32
TAAR2,2,-1.01
TAAR2,3,-1.09

Part of the list above, set out differently.
ERCC6L2 #2 | G2 robust z-score: 2.79
ERCC6L2 #3 | G2 robust z-score: 1.39
ERCC6L2 #4 | G2 robust z-score: -0.717
ERCC6L2 #5 | G2 robust z-score: -0.263
ERCC6L2 #6 | G2 robust z-score: -0.0117
